Results are given in words; binding and its absence hold for the method and conditions named.
Molecular target: T1, Human prostate specific antigen (hPSA) peptide 53–59: RHSLFHP (human)
T1 sequence (peptide): RHSLFHP
Assay: magnetic particle enzyme immunoassay (MPEIA); RHSLFHP coupled by EDC to SPHERO carboxyl magnetic particles; biotinylated peptide in two-fold dilutions 1.09–70 µM, room temperature, 30 min, PBS-Tween 20 washes; detected with streptavidin-peroxidase polymer and OPD, absorbance at 450 nm; both purified

binding: no binding
B1: N-terminal biotin peptide Biotin-EHFRW (peptide)
peptide: EHFRW
modifications: biotin on the N-terminus

From publication PMC6540241, “Targeting Tumor Markers with Antisense Peptides: An Example of Human Prostate Specific Antigen” (International Journal of Molecular Sciences, 2019)
